From patent US20150376286A1 come the findings set out here.

Amino acid sequences for entries named in this document (tags omitted). A change or cut given only in a name is not applied to a line headed by its entry.
UniProt Q16602: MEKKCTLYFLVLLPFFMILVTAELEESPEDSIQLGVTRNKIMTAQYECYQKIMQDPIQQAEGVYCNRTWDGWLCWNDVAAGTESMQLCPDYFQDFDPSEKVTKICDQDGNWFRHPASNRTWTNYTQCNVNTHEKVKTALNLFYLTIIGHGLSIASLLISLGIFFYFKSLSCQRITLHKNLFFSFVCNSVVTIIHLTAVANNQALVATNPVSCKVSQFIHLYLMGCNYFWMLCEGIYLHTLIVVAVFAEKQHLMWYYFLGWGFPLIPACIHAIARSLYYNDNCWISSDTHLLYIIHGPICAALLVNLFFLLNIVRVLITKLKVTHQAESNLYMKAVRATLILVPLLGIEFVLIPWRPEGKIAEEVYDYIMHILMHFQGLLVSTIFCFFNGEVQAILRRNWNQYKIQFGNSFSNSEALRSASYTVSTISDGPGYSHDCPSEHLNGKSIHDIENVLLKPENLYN

The test concerns the target human CGRP receptor (CRLR + RAMP1) (human) (UniProt Q16602). The experiment in a line: FACS staining of transfected cells.

Results are given in words; binding and its absence hold for the method and conditions named. Some binding calls cover weakened binding; strength is not graded here.

B1: Alexa 647-labeled CGRP8-37 peptide analog (peptide)
peptide: WVTHRLAGLLSRSGGVVRCNFVPTDVGPFAF
modifications: N-terminal acetyl (Ac-), C-terminal amide (-NH2), Alexa 647 label
With B1, the binding entry is given as “binds”.
